According to US20090061443A1:
Results are given in words; binding and its absence hold for the method and conditions named. In cells and extracts the contact can be indirect. Some results given as binding are weak or reduced against the parent protein; the word gives no strength.

Chains of the proteins cited; added tags and fusions are not shown. Lines headed by an entry give the natural chain unless they say otherwise; changes in a name come on top.
UniProt Q13492: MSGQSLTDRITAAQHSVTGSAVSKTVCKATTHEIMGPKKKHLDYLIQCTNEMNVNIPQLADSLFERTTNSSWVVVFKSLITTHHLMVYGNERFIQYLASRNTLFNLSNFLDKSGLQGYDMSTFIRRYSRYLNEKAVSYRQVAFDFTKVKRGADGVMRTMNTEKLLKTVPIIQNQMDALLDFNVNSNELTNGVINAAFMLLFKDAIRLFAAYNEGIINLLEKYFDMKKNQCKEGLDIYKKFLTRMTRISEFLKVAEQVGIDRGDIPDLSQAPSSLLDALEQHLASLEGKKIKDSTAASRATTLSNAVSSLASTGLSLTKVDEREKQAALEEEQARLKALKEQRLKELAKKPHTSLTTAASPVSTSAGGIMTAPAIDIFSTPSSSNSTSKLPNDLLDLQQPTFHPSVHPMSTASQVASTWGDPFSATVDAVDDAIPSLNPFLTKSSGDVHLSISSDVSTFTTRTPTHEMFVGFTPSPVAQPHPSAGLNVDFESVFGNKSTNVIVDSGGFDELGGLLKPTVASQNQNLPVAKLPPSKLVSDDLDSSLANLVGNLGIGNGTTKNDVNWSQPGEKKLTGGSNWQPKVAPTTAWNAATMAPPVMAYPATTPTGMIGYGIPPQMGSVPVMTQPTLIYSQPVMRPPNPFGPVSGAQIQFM
UniProt P55197: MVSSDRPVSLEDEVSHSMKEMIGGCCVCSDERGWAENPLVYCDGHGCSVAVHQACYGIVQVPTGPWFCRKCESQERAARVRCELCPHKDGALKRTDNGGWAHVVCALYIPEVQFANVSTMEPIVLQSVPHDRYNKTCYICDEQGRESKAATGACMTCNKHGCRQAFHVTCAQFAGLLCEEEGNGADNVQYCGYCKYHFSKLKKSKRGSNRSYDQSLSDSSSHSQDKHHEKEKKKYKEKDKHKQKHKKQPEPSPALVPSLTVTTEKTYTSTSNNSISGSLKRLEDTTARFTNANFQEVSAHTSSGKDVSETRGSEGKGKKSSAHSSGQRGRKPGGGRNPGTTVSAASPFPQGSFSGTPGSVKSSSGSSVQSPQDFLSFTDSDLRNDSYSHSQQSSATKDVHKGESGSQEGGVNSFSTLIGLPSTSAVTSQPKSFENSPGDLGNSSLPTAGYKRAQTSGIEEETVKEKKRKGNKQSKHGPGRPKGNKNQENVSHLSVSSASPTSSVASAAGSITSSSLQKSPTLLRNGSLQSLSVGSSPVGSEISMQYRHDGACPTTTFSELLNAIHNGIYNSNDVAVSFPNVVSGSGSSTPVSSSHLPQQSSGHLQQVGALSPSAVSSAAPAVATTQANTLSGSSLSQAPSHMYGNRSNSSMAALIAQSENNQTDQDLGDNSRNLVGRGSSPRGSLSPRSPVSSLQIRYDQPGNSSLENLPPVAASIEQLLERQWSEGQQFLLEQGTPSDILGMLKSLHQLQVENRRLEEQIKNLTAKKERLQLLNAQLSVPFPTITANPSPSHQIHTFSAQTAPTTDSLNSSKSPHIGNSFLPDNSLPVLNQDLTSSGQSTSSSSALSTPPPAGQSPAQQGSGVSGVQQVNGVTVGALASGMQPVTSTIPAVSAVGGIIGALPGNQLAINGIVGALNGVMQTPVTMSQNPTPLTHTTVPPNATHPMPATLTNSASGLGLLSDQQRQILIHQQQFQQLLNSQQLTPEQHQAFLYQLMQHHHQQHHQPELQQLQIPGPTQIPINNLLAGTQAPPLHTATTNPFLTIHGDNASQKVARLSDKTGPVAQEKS
UniProt Q8TEK3: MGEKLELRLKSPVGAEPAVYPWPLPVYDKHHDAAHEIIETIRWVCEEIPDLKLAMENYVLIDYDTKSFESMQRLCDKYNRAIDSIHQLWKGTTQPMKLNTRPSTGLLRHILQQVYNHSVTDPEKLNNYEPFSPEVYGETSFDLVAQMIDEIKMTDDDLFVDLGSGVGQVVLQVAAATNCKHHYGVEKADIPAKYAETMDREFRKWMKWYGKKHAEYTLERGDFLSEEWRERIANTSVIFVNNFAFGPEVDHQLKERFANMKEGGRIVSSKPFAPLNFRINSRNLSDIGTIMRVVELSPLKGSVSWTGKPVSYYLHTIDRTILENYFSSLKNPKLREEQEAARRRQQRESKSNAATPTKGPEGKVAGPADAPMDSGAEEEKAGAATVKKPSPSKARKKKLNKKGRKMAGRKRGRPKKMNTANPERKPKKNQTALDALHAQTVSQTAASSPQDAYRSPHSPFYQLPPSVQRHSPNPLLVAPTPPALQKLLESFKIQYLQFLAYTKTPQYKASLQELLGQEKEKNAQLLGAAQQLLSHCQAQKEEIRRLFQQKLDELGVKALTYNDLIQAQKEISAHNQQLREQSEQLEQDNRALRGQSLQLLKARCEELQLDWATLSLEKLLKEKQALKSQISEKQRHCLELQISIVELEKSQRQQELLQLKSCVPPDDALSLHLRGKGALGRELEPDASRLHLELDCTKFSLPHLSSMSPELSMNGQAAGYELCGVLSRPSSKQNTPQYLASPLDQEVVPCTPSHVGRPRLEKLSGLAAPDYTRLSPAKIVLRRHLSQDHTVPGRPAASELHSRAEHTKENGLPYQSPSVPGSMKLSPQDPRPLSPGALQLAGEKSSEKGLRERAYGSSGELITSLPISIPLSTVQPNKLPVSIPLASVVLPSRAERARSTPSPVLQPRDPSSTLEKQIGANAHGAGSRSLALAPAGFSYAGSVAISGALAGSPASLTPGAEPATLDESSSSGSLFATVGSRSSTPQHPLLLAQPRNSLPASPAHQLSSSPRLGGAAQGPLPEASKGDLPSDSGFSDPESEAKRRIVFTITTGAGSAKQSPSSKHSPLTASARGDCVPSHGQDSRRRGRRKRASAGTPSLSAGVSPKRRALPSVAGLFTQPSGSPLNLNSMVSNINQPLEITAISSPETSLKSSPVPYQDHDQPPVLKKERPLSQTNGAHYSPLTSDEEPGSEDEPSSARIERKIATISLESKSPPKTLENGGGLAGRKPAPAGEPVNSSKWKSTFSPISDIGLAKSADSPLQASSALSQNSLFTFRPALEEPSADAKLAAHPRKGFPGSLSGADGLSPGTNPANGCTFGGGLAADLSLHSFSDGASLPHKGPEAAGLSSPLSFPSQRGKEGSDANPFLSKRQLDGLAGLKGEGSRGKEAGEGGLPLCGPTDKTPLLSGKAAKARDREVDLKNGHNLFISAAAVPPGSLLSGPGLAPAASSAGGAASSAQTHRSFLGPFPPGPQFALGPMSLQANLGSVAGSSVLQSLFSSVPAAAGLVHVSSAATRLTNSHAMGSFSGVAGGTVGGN

Assays:
[1] = target: T1, Flag-CALM-AF10 fusion protein (wild-type) (human) (UniProt Q13492+P55197); assay: co-immunoprecipitation from transfected 293T cells (anti-Flag M2 agarose, wash at 500 mM KCl, Western blot with hDOT1L and Flag antibodies)
[2] = target: T1, Flag-CALM-AF10 fusion protein (wild-type) (human); assay: co-immunoprecipitation from transfected 293T cells (anti-Flag M2 agarose, Western blot)

binding [1]: binds
binding [2]: binds
Substance: hDOT1L (human DOT1-like protein) (from UniProt Q8TEK3 1-1537) (enzyme)
